# Some of the results follow.
# Protein sequences, listed by entry. Tags and fused reporters are not part of them. Lines headed by an entry give the natural chain unless they say otherwise; changes in a name come on top.
# UniProt Q9UHQ7: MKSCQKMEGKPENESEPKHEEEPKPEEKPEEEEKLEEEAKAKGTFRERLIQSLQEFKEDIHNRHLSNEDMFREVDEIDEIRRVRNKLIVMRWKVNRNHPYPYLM
# UniProt O15533, whole entry, looked up: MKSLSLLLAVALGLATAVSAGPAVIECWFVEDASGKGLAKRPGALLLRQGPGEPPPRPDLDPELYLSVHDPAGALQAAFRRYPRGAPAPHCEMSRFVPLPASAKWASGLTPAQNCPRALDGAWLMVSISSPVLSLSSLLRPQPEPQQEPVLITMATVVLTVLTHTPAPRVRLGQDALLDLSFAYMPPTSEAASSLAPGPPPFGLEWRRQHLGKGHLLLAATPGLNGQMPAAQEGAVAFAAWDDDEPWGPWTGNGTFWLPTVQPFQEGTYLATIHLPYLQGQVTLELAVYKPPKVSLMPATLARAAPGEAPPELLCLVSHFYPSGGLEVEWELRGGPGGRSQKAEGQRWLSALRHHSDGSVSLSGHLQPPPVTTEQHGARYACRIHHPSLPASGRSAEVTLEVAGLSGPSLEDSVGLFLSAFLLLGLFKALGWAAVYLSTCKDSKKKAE
# UniProt Q13428: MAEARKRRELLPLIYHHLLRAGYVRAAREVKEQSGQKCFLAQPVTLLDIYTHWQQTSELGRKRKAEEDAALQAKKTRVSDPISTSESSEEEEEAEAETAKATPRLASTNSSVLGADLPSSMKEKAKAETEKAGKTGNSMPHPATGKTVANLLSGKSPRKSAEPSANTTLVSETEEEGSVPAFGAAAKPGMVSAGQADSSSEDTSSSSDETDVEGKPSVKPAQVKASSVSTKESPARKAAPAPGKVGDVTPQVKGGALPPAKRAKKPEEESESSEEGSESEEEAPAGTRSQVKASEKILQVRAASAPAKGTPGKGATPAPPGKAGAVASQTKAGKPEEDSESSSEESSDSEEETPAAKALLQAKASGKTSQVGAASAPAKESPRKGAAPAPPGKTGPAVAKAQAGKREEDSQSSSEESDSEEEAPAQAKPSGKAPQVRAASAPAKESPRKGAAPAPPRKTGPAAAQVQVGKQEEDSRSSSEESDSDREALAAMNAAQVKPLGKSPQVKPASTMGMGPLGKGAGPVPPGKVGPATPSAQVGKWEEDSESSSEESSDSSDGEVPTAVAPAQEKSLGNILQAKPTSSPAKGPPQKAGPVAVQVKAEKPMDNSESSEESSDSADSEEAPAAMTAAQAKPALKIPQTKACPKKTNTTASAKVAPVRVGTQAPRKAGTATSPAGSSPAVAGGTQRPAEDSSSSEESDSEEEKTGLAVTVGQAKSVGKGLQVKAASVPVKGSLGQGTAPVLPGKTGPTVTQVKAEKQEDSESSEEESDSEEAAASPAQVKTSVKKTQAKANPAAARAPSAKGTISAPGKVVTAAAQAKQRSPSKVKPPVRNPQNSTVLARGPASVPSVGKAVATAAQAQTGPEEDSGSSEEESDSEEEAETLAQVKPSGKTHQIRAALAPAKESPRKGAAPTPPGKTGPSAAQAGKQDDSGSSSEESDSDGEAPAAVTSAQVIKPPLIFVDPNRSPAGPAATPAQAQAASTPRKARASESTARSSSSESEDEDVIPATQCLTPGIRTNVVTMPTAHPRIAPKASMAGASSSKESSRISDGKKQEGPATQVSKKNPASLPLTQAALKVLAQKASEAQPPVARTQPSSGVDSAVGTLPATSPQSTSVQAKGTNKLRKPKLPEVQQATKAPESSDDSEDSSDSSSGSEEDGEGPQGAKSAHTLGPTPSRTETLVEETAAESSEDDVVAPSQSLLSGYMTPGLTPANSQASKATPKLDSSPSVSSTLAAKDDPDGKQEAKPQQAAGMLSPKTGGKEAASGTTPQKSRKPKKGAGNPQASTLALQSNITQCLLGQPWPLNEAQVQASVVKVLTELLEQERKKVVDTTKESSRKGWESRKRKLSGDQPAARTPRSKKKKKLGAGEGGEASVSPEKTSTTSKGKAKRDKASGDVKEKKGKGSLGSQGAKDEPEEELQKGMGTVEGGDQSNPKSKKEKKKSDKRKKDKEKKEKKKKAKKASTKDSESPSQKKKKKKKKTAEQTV
# UniProt Q15170: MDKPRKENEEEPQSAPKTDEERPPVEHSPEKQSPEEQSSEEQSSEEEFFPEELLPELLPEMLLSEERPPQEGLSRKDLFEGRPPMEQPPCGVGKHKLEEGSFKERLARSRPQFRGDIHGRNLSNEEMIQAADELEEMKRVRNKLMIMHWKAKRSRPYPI
# UniProt P15923: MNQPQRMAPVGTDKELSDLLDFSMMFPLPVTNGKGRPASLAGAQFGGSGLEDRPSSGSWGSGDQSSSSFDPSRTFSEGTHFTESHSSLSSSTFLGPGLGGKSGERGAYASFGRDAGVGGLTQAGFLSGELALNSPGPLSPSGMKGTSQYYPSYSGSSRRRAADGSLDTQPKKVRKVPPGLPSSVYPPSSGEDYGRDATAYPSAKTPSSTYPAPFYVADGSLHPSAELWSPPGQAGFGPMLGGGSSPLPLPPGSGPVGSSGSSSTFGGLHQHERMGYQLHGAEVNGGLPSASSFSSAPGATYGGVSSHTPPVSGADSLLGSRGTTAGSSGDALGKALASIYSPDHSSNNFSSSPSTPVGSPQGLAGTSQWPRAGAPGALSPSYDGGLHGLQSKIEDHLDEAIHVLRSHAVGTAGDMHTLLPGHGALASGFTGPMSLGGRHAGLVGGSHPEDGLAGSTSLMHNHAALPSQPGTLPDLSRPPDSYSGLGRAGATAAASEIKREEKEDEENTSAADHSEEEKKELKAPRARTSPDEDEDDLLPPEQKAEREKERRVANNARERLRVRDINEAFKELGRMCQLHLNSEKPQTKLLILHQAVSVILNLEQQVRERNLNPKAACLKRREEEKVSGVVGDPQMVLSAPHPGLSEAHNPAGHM
# UniProt Q86SX3: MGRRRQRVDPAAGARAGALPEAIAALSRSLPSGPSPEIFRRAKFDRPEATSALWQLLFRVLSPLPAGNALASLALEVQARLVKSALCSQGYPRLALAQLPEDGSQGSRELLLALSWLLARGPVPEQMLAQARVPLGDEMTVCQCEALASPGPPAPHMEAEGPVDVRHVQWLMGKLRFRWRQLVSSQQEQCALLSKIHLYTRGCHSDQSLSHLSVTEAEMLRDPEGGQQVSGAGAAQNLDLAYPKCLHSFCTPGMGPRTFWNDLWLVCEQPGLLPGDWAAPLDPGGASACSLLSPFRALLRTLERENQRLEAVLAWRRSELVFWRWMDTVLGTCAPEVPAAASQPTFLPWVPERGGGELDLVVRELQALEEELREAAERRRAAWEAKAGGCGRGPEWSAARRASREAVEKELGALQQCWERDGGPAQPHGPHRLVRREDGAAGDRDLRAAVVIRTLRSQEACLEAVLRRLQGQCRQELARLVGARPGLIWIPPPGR
# UniProt Q8IYN2: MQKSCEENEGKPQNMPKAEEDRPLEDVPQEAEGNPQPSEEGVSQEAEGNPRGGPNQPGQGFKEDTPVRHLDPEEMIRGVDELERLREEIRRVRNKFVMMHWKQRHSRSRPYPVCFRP
# UniProt Q15562, whole entry, looked up: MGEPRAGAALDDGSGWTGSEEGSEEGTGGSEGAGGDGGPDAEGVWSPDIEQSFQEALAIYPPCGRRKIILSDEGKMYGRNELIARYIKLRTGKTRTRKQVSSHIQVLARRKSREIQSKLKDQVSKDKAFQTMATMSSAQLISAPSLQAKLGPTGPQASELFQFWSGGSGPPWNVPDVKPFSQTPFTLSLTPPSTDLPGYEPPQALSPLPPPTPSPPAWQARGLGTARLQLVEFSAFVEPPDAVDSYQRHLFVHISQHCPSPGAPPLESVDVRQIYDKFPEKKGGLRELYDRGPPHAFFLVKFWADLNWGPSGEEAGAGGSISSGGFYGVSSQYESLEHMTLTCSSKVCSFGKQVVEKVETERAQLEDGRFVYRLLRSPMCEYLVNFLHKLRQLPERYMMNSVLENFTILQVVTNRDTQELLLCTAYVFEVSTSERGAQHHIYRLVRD
# UniProt Q6PIY7: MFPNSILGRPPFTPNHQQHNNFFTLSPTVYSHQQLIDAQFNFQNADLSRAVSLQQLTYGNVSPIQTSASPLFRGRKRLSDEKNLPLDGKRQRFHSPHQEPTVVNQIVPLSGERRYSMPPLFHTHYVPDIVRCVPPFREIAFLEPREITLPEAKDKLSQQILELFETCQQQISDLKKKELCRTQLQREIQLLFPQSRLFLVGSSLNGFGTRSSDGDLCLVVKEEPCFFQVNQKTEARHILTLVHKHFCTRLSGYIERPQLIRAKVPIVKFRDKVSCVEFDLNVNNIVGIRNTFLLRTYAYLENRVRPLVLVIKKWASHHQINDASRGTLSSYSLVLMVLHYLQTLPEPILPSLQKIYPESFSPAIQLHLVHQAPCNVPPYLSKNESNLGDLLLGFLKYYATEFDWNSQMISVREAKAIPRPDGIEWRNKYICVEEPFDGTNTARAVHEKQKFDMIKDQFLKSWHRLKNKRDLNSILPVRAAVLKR
# Legend:
# Assay in all cases: log2 fold change, soluble protein after heating vs DMSO (PISA); higher = thermal stabilisation; K562 lysate, 10 uM; active = over 0.2 and 3.5 SD of the protein, either way, in both replicates (recomputed)
# Tubastatin A = compound: CN1CCc2c(c3ccccc3n2Cc2ccc(C(=O)NO)cc2)C1 [Tubastatin A]
# Summary of the method: (§1)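 Quantification was by TMTpro 16plex LC-MS/MS with equalised channel sums, applied to the supernatant after 21,000xg for 90 min. Samples were crude K562 extract at 1 mg/mL protein in PBS pH 7.4 with 1 mM MgCl2, treated with 10 μM compound for 30 min, heated for 3 min across 48°C-58°C, pooled and brought to 0.5% NP-40 at 4°C. Values are log-two fold changes in thermal stability relative to solvent controls, from duplicates.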
# [1] = compound: CNC(=O)C1=CC=CC=C1NC2=NC(=NC=C2Cl)NC3=C(C=C(C=C3)N4CCOCC4)OC
# Summary of the method: as §1
# [2] = compound: CNc1nc(-c2ccc3c(N)n[nH]c3c2)cc(N2C[C@@H](C(=O)NC3CCCCC3)CC[C@H]2C)n1
# Summary of the method: as §1
# encorafenib = compound: COC(=O)N[C@@H](C)CNc1nccc(-c2cn(C(C)C)nc2-c2cc(Cl)cc(NS(C)(=O)=O)c2F)n1 [encorafenib]
# Summary of the method: as §1
# [3] = compound: COC(=O)[C@H](CCSC)NC(=O)C1=C(C=C(C=C1)NC[C@H](CS)N)C2=CC=CC=C2
# Summary of the method: as §1
# crizotinib = compound: C[C@@H](Oc1cc(-c2cnn(C3CCNCC3)c2)cnc1N)c1c(Cl)ccc(F)c1Cl [crizotinib]
# Summary of the method: as §1
# duvelisib = compound: C[C@H](Nc1ncnc2nc[nH]c12)c1cc2cccc(Cl)c2c(=O)n1-c1ccccc1 [duvelisib]
# Summary of the method: as §1
# tozasertib = compound: Cc1cc(Nc2cc(N3CCN(C)CC3)nc(Sc3ccc(NC(=O)C4CC4)cc3)n2)n[nH]1 [tozasertib]
# Summary of the method: as §1
# doramapimod = compound: Cc1ccc(-n2nc(C(C)(C)C)cc2NC(=O)Nc2ccc(OCCN3CCOCC3)c3ccccc23)cc1 [doramapimod]
# Summary of the method: as §1
# defactinib = compound: CNC(=O)c1ccc(Nc2ncc(C(F)(F)F)c(NCc3nccnc3N(C)S(C)(=O)=O)n2)cc1 [defactinib]
# Summary of the method: as §1
# alisertib = compound: COc1cc(Nc2ncc3c(n2)-c2ccc(Cl)cc2C(c2c(F)cccc2OC)=NC3)ccc1C(=O)O [alisertib]
# Summary of the method: as §1
# gefitinib = compound: COc1cc2ncnc(Nc3ccc(F)c(Cl)c3)c2cc1OCCCN1CCOCC1 [gefitinib]
# Summary of the method: as §1
# pictilisib = compound: CS(=O)(=O)N1CCN(Cc2cc3nc(-c4cccc5[nH]ncc45)nc(N4CCOCC4)c3s2)CC1 [pictilisib]
# Summary of the method: as §1
# bafetinib = compound: Cc1ccc(NC(=O)c2ccc(CN3CC[C@H](N(C)C)C3)c(C(F)(F)F)c2)cc1Nc1nccc(-c2cncnc2)n1 [bafetinib]
# Summary of the method: as §1
# [4] = compound: COc1cc2nc(-c3cc(F)ccc3O)nc(N[C@@H]3CNC[C@H]3C(C)(C)O)c2cc1OC
# Summary of the method: as §1
# lapatinib = compound: CS(=O)(=O)CCNCc1ccc(-c2ccc3ncnc(Nc4ccc(OCc5cccc(F)c5)c(Cl)c4)c3c2)o1 [lapatinib]
# Summary of the method: as §1
target,measurement,setting,value
TEAD3 (UniProt Q99594),log2 fold change,Tubastatin A,inactive: -0.152
same,log2 fold change,[1],inactive: 0.104
same,log2 fold change,[2],inactive: 0.166
same,log2 fold change,encorafenib,inactive: 0.036
same,log2 fold change,[3],inactive: 0.322
same,log2 fold change,crizotinib,inactive: 0.016
same,log2 fold change,duvelisib,inactive: -0.101
same,log2 fold change,tozasertib,inactive: 0.078
same,log2 fold change,doramapimod,inactive: 0.011
TASOR (UniProt Q9UK61),log2 fold change,[1],inactive: 0.254
same,log2 fold change,defactinib,inactive: -0.006
same,log2 fold change,[2],inactive: 0.058
same,log2 fold change,encorafenib,inactive: 0.031
same,log2 fold change,[3],inactive: 0
same,log2 fold change,crizotinib,inactive: -0.042
same,log2 fold change,duvelisib,inactive: 0.048
same,log2 fold change,tozasertib,inactive: 0.049
same,log2 fold change,doramapimod,inactive: -0.032
TCEAL9 (UniProt Q9UHQ7),log2 fold change,defactinib,inactive: 0.146
same,log2 fold change,alisertib,inactive: 0.047
same,log2 fold change,gefitinib,inactive: -0.131
same,log2 fold change,crizotinib,inactive: -0.043
same,log2 fold change,doramapimod,inactive: -0.003
TAPBP isoform 3 (UniProt O15533),log2 fold change,[1],inactive: -0.063
same,log2 fold change,defactinib,inactive: 0.017
same,log2 fold change,[2],inactive: -0.025
same,log2 fold change,encorafenib,inactive: -0.004
same,log2 fold change,[3],inactive: 0.048
same,log2 fold change,pictilisib,inactive: 0.013
same,log2 fold change,crizotinib,inactive: -0.086
same,log2 fold change,duvelisib,inactive: 0.031
same,log2 fold change,tozasertib,inactive: -0.052
same,log2 fold change,doramapimod,inactive: -0.04
same,log2 fold change,bafetinib,inactive: -0.193
TFPT (UniProt P0C1Z6),log2 fold change,[1],inactive: -0.041
same,log2 fold change,[2],active: 0.381
same,log2 fold change,[4],inactive: 0.027
same,log2 fold change,lapatinib,inactive: -0.004
same,log2 fold change,pictilisib,inactive: 0.032
same,log2 fold change,duvelisib,inactive: -0.005
same,log2 fold change,bafetinib,inactive: -0.004
TFDP2 (UniProt Q14188),log2 fold change,Tubastatin A,inactive: -0.218
same,log2 fold change,[1],inactive: 0.093
same,log2 fold change,defactinib,inactive: 0.132
same,log2 fold change,[2],inactive: -0.01
same,log2 fold change,alisertib,inactive: 0.111
same,log2 fold change,[4],inactive: 0.163
same,log2 fold change,gefitinib,inactive: -0.047
same,log2 fold change,lapatinib,inactive: -0.194
same,log2 fold change,pictilisib,inactive: 0.138
same,log2 fold change,crizotinib,inactive: -0.049
same,log2 fold change,duvelisib,inactive: 0.085
same,log2 fold change,doramapimod,inactive: -0.123
same,log2 fold change,bafetinib,inactive: 0.1
TCOF1 isoform 6 (UniProt Q13428),log2 fold change,Tubastatin A,inactive: -0.164
same,log2 fold change,[1],inactive: 0.096
same,log2 fold change,[2],inactive: 0.009
same,log2 fold change,alisertib,inactive: -0.059
same,log2 fold change,[4],inactive: 0.05
same,log2 fold change,gefitinib,inactive: 0.058
same,log2 fold change,lapatinib,inactive: -0.007
same,log2 fold change,crizotinib,inactive: 0.008
same,log2 fold change,duvelisib,inactive: -0.038
same,log2 fold change,doramapimod,inactive: -0.096
TEAD4 (UniProt Q15561),log2 fold change,[1],inactive: 0.048
same,log2 fold change,pictilisib,inactive: -0.011
same,log2 fold change,bafetinib,inactive: -0.098
TCEAL1 isoform 2 (UniProt Q15170),log2 fold change,defactinib,inactive: 0.025
same,log2 fold change,[4],inactive: 0.119
same,log2 fold change,lapatinib,inactive: -0.127
same,log2 fold change,pictilisib,inactive: -0.073
same,log2 fold change,bafetinib,inactive: -0.021
TCF3 isoform 2 (UniProt P15923),log2 fold change,Tubastatin A,inactive: 0.055
same,log2 fold change,[1],inactive: 0.214
same,log2 fold change,crizotinib,inactive: -0.048
same,log2 fold change,doramapimod,inactive: 0.092
TBCA (UniProt E5RHG6),log2 fold change,Tubastatin A,inactive: 0.102
same,log2 fold change,[1],inactive: 0.014
same,log2 fold change,crizotinib,inactive: -0.114
same,log2 fold change,doramapimod,inactive: -0.021
TERF1 (UniProt P54274),log2 fold change,defactinib,inactive: 0.04
same,log2 fold change,encorafenib,inactive: -0.021
same,log2 fold change,[3],inactive: 0.288
same,log2 fold change,alisertib,inactive: -0.064
same,log2 fold change,gefitinib,inactive: -0.034
same,log2 fold change,crizotinib,inactive: -0.023
same,log2 fold change,tozasertib,inactive: 0.099
same,log2 fold change,doramapimod,inactive: -0.011
TAX1BP1 isoform 2 (UniProt Q86VP1),log2 fold change,Tubastatin A,inactive: 0.207
same,log2 fold change,[1],inactive: -0.158
same,log2 fold change,alisertib,inactive: -0.225
same,log2 fold change,gefitinib,inactive: -0.273
same,log2 fold change,pictilisib,inactive: -0.07
same,log2 fold change,bafetinib,inactive: 0.01
TEDC1 (UniProt Q86SX3),log2 fold change,Tubastatin A,inactive: -0.254
same,log2 fold change,[1],inactive: 0.038
same,log2 fold change,[2],inactive: 0.051
same,log2 fold change,encorafenib,inactive: 0.094
same,log2 fold change,[3],inactive: 0.047
same,log2 fold change,alisertib,inactive: -0.019
same,log2 fold change,[4],inactive: -0.008
same,log2 fold change,gefitinib,inactive: 0.047
same,log2 fold change,lapatinib,inactive: -0.064
same,log2 fold change,crizotinib,inactive: -0.078
same,log2 fold change,duvelisib,inactive: 0.159
same,log2 fold change,tozasertib,inactive: -0.103
same,log2 fold change,doramapimod,inactive: 0.009
TATDN1 isoform 2 (UniProt Q6P1N9),log2 fold change,Tubastatin A,inactive: 0.168
same,log2 fold change,[1],inactive: 0
same,log2 fold change,defactinib,inactive: -0.088
same,log2 fold change,[4],inactive: 0.021
same,log2 fold change,lapatinib,inactive: 0.029
same,log2 fold change,pictilisib,inactive: -0.057
same,log2 fold change,crizotinib,inactive: -0.069
same,log2 fold change,doramapimod,inactive: -0.029
same,log2 fold change,bafetinib,inactive: -0.123
TEC (UniProt P42680),log2 fold change,defactinib,inactive: 0.07
same,log2 fold change,encorafenib,inactive: -0.044
same,log2 fold change,[3],inactive: -0.036
same,log2 fold change,alisertib,inactive: -0.086
same,log2 fold change,[4],inactive: -0.028
same,log2 fold change,gefitinib,inactive: -0.027
same,log2 fold change,lapatinib,inactive: 0.007
same,log2 fold change,tozasertib,inactive: -0.198
TCEAL8 (UniProt Q8IYN2),log2 fold change,defactinib,inactive: 0.028
same,log2 fold change,[2],inactive: 0.111
same,log2 fold change,encorafenib,inactive: -0.096
same,log2 fold change,[3],inactive: -0.072
same,log2 fold change,crizotinib,inactive: 0.031
same,log2 fold change,duvelisib,inactive: -0.137
same,log2 fold change,tozasertib,inactive: 0.078
same,log2 fold change,doramapimod,inactive: -0.047
TEAD2 isoform 4 (UniProt Q15562),log2 fold change,[1],inactive: 0.091
same,log2 fold change,defactinib,inactive: 0.207
same,log2 fold change,[2],inactive: 0.133
same,log2 fold change,duvelisib,inactive: 0.119
TASOR2 (UniProt Q5VWN6),log2 fold change,Tubastatin A,inactive: 0.102
same,log2 fold change,[2],inactive: -0.057
same,log2 fold change,encorafenib,inactive: -0.044
same,log2 fold change,[3],inactive: -0.037
same,log2 fold change,alisertib,inactive: -0.017
same,log2 fold change,gefitinib,inactive: 0.05
same,log2 fold change,pictilisib,inactive: -0.066
same,log2 fold change,duvelisib,inactive: -0.11
same,log2 fold change,tozasertib,inactive: 0.171
same,log2 fold change,bafetinib,inactive: -0.557
TFEB (UniProt P19484),log2 fold change,defactinib,inactive: -0.172
same,log2 fold change,alisertib,inactive: 0.007
same,log2 fold change,gefitinib,inactive: 0.075
same,log2 fold change,crizotinib,inactive: -0.05
same,log2 fold change,doramapimod,inactive: 0.057
"TAF8, A0A0A0MRR3",log2 fold change,[2],inactive: 0.077
same,log2 fold change,duvelisib,inactive: -0.196
TENT2 (UniProt Q6PIY7),log2 fold change,[2],inactive: -0.059
same,log2 fold change,duvelisib,inactive: 0.045
TET2 (UniProt Q6N021),log2 fold change,[1],inactive: -0.003
same,log2 fold change,[2],inactive: 0.046
same,log2 fold change,encorafenib,inactive: -0.091
same,log2 fold change,[3],inactive: 0.182
same,log2 fold change,pictilisib,inactive: -0.054
same,log2 fold change,crizotinib,inactive: 0.056
same,log2 fold change,duvelisib,inactive: 0.012
same,log2 fold change,tozasertib,inactive: 0.083
same,log2 fold change,doramapimod,inactive: -0.39
same,log2 fold change,bafetinib,inactive: -0.102

# Shown as tab-separated lines: entries from further up.
target	measurement	setting	value
TEAD3 (UniProt Q99594)	log2 fold change	Tubastatin A	inactive: -0.152
same	log2 fold change	encorafenib	inactive: 0.036
same	log2 fold change	[3]	inactive: 0.322
same	log2 fold change	crizotinib	inactive: 0.016
same	log2 fold change	doramapimod	inactive: 0.011
TASOR (UniProt Q9UK61)	log2 fold change	duvelisib	inactive: 0.048
same	log2 fold change	tozasertib	inactive: 0.049
TCEAL9 (UniProt Q9UHQ7)	log2 fold change	gefitinib	inactive: -0.131
same	log2 fold change	doramapimod	inactive: -0.003
TAPBP isoform 3 (UniProt O15533)	log2 fold change	[1]	inactive: -0.063
same	log2 fold change	defactinib	inactive: 0.017
same	log2 fold change	tozasertib	inactive: -0.052
same	log2 fold change	doramapimod	inactive: -0.04
TFPT (UniProt P0C1Z6)	log2 fold change	[4]	inactive: 0.027
same	log2 fold change	lapatinib	inactive: -0.004
same	log2 fold change	pictilisib	inactive: 0.032
TFDP2 (UniProt Q14188)	log2 fold change	defactinib	inactive: 0.132
same	log2 fold change	alisertib	inactive: 0.111
TCOF1 isoform 6 (UniProt Q13428)	log2 fold change	Tubastatin A	inactive: -0.164
same	log2 fold change	[4]	inactive: 0.05
same	log2 fold change	gefitinib	inactive: 0.058
same	log2 fold change	crizotinib	inactive: 0.008
TCEAL1 isoform 2 (UniProt Q15170)	log2 fold change	lapatinib	inactive: -0.127
TCF3 isoform 2 (UniProt P15923)	log2 fold change	Tubastatin A	inactive: 0.055
TBCA (UniProt E5RHG6)	log2 fold change	[1]	inactive: 0.014
TERF1 (UniProt P54274)	log2 fold change	crizotinib	inactive: -0.023
TAX1BP1 isoform 2 (UniProt Q86VP1)	log2 fold change	Tubastatin A	inactive: 0.207
same	log2 fold change	alisertib	inactive: -0.225
same	log2 fold change	pictilisib	inactive: -0.07
same	log2 fold change	bafetinib	inactive: 0.01
TEDC1 (UniProt Q86SX3)	log2 fold change	encorafenib	inactive: 0.094
same	log2 fold change	doramapimod	inactive: 0.009
TEC (UniProt P42680)	log2 fold change	defactinib	inactive: 0.07
same	log2 fold change	[3]	inactive: -0.036
same	log2 fold change	gefitinib	inactive: -0.027
TCEAL8 (UniProt Q8IYN2)	log2 fold change	crizotinib	inactive: 0.031
TEAD2 isoform 4 (UniProt Q15562)	log2 fold change	[2]	inactive: 0.133
TASOR2 (UniProt Q5VWN6)	log2 fold change	Tubastatin A	inactive: 0.102
same	log2 fold change	[3]	inactive: -0.037
same	log2 fold change	tozasertib	inactive: 0.171
TFEB (UniProt P19484)	log2 fold change	defactinib	inactive: -0.172
